This note sets out measurements from paper PMC6557900.

Test [1] addresses T1, GHR_pY595 phosphopeptide (growth hormone receptor), wild-type.
T1 chain: PVPDYTSIHIV
In words: crystal structure; SBC-GHR: S^KKQBC incubated with five times molar excess of GHR_pY595; 0.005 M cobalt(II) chloride, 0.1 M MES pH 6.5, 1.0 M ammonium sulfate, 4 °C; 1.98 Å; both purified. Conditions: remark: other sources report otherwise.

Test [2] concerns the target T1, GHR_pY595 phosphopeptide (growth …). In words: crystal structure; SBC-GHR2: GHR_pY595 and GHR_pY487 mixed with S^KKQBC at 1:1:1; 0.005 M cobalt chloride, 0.1 M MES pH 6.5, 1.0 M ammonium sulfate, 4 °C; 2.8 Å; both purified. Conditions: remark: other sources report otherwise.

These are yes or no findings as the source states them, for the method shown. Some binding calls cover weakened binding; strength is not graded here.

B1: GHR_pY595 phosphopeptide (growth hormone receptor), wild-type (peptide)
peptide: PVPDYTSIHIV
modifications: here or on the partner: phosphotyrosine (pY) at the 5th residue (Tyr595); C-terminal amide; phosphotyrosine (pY) at the 5th residue (Tyr595); C-terminal amide
On to B1, for which the binding entry in test [1] and in test [2] was “binds” throughout.
